Results are given in words; binding and its absence hold for the method and conditions named. Some results given as binding are weak or reduced against the parent protein; the word gives no strength.
Target: USP46, endogenous (human (endogenous in HEK293)) (UniProt P62068)
Assay: SEC; HEK293 cells with or without Wnt3a, detergent-free NDLB lysates, 100,000 x g supernatant on Superdex 200 10/300; fractions TCA-precipitated and immunoblotted; peak broadened with Wnt3a

Chains of the proteins cited; added tags and fusions are not shown.
UniProt P62068: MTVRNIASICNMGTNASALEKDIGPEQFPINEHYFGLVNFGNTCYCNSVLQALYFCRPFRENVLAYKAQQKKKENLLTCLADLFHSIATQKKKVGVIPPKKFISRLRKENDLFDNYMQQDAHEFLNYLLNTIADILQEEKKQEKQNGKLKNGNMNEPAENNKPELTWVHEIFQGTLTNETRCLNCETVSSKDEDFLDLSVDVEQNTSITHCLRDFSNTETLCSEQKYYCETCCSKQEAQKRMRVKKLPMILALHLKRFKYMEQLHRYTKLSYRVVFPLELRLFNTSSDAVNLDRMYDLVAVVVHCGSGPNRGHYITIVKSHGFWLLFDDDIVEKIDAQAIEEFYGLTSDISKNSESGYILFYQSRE
UniProt Q8TAF3: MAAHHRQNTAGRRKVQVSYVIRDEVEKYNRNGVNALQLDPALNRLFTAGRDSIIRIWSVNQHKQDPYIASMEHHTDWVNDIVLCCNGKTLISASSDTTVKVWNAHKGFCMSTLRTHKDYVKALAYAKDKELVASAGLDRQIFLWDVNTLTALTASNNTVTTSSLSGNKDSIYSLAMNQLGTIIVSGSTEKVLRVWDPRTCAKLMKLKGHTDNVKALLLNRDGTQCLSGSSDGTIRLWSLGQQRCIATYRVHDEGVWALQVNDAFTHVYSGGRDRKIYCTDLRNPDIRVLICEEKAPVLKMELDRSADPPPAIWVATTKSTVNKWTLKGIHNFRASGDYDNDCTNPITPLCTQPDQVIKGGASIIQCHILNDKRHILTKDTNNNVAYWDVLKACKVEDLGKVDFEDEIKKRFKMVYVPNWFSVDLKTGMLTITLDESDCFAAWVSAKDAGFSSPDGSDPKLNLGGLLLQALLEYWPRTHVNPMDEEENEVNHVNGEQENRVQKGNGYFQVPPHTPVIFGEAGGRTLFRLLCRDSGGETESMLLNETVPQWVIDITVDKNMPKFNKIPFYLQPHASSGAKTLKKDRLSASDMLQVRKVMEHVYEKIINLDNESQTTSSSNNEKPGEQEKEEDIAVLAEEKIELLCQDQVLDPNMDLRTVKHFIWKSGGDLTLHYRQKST

| Molecule | binding |
| --- | --- |
| UAF1, endogenous (from UniProt Q8TAF3 1-677) | binds |
| WDR20, endogenous (protein, UniProt Q8TBZ3 1-569) MATEGGGKEMNEIKTQFTTREGLYKLLPHSEYSRPNRVPFNSQGSNPVRVSFVNLNDQSGNGDRLCFNVGRELYFYIYKGVRKAADLSKPIDKRIYKGTQPTCHDFNHLTATAESVSLLVGFSAGQVQLIDPIKKETSKLFNEERLIDKSRVTCVKWVPGSESLFLVAHSSGNMYLYNVEHTCGTTAPHYQLLKQGESFAVHTCKSKSTRNPLLKWTVGEGALNEFAFSPDGKFLACVSQDGFLRVFNFDSVELHGTMKSYFGGLLCVCWSPDGKYIVTGGEDDLVTVWSFVDCRVIARGHGHKSWVSVVAFDPYTTSVEEGDPMEFSGSDEDFQDLLHFGRDRANSTQSRLSKRNSTDSRPVSVTYRFGSVGQDTQLCLWDLTEDILFPHQPLSRARTHTNVMNATSPPAGSNGNSVTTPGNSVPPPLPRSNSLPHSAVSNAGSKSSVMDGAIASGVSKFATLSLHDRKERHHEKDHKRNHSMGHISSKSSDKLNLVTKTKTDPAKTLGTPLCPRMEDVPLLEPLICKKIAHERLTVLIFLEDCIVTACQEGFICTWGRPGKVVSFNP | binds |
